Reference: paper doi:10.1101/264788
These are yes or no findings as the source states them, for the method shown. Binding seen in cells or lysates may run through a third protein. Here binding means that the protein was enriched with, or labelled near, the bait; the list need not be complete. Values belong to the molecule of their own block, whether it stands above or below them.

Protein sequences, listed by entry. Tags and fused reporters are not part of them. Residues count along the entry.
UniProt P02545, residues 1-646: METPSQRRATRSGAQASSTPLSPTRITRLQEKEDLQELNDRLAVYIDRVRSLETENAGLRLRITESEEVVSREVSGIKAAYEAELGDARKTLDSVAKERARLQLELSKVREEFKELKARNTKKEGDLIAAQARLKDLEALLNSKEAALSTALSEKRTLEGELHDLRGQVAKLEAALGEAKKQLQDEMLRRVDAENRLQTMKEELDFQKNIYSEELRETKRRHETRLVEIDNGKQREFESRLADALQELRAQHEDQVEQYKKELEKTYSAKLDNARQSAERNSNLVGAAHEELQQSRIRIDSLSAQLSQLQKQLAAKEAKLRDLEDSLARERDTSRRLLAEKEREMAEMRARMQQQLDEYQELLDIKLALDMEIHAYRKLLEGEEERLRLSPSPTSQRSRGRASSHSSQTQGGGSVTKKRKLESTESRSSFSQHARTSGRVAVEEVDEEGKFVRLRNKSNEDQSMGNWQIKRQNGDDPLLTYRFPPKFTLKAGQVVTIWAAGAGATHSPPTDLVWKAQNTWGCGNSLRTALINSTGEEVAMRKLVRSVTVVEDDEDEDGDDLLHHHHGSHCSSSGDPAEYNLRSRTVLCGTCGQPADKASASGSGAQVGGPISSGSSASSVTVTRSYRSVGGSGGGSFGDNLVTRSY
UniProt P25786: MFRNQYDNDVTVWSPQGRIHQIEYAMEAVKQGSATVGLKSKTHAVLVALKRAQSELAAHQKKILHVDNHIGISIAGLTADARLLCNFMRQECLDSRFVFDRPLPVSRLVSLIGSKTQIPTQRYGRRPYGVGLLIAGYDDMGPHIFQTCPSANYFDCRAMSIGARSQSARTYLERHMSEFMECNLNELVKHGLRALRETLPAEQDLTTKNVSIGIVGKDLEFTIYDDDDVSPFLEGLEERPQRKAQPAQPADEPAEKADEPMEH
UniProt P50613: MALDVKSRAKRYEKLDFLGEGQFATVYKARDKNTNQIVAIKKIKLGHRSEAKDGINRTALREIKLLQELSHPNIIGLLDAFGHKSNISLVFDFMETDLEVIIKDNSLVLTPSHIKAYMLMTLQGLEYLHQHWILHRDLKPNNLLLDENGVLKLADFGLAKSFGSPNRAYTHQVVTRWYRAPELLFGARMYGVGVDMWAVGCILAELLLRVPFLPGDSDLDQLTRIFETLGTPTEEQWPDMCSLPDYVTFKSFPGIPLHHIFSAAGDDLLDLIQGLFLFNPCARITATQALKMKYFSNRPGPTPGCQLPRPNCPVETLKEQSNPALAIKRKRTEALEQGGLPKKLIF
UniProt Q9UHV7: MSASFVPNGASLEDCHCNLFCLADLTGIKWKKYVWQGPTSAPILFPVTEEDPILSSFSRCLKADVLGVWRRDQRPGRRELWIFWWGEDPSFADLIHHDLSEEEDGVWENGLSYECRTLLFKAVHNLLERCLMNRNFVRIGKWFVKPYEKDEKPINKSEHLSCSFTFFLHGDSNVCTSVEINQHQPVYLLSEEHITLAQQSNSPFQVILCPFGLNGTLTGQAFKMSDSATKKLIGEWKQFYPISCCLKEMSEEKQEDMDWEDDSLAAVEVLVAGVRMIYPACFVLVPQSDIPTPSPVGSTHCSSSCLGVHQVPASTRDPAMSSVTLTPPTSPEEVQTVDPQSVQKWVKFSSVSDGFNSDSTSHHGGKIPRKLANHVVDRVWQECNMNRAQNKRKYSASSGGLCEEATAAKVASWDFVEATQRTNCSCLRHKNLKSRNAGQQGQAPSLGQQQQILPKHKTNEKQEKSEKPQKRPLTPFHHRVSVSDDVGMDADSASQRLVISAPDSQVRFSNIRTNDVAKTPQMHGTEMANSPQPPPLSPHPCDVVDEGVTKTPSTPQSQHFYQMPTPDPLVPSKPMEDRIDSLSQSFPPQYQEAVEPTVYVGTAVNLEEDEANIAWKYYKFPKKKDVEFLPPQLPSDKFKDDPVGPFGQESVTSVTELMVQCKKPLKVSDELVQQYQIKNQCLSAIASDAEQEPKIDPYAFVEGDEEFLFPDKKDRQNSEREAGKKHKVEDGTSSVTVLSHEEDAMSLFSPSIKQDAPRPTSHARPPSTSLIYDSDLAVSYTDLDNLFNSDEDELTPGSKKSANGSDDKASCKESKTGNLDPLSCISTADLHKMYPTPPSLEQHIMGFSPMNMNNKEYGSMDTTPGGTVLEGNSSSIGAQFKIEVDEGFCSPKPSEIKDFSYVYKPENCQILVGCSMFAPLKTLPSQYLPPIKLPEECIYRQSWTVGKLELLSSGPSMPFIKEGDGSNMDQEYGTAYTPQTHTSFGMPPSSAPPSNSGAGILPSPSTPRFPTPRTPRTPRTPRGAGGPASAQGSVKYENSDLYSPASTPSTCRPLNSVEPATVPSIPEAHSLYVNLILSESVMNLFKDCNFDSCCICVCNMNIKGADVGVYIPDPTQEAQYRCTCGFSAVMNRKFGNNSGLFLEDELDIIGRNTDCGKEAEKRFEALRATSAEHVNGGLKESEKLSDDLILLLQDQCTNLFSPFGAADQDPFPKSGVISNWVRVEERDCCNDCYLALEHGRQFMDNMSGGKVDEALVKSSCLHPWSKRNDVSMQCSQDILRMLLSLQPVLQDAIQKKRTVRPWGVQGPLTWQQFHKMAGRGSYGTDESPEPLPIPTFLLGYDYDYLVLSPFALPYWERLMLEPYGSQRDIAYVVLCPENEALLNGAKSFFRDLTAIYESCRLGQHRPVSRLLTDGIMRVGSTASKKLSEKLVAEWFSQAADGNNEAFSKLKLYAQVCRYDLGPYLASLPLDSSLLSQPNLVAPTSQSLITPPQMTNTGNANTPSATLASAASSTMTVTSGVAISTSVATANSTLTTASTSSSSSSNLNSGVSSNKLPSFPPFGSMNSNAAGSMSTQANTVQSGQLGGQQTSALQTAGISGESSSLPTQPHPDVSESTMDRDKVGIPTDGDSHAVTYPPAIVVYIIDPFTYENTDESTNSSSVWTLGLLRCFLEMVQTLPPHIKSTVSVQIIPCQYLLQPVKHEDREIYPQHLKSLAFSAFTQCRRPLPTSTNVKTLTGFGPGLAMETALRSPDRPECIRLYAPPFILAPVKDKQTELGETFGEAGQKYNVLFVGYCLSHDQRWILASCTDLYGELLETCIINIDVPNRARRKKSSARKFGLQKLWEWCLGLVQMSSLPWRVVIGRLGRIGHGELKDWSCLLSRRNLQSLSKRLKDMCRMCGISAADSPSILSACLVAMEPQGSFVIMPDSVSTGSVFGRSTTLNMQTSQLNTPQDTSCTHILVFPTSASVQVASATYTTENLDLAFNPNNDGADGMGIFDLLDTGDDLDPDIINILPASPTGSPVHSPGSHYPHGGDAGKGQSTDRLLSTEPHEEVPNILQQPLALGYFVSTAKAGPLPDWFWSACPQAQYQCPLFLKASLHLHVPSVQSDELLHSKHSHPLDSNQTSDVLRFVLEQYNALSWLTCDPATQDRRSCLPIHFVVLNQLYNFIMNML
UniProt Q9UM54: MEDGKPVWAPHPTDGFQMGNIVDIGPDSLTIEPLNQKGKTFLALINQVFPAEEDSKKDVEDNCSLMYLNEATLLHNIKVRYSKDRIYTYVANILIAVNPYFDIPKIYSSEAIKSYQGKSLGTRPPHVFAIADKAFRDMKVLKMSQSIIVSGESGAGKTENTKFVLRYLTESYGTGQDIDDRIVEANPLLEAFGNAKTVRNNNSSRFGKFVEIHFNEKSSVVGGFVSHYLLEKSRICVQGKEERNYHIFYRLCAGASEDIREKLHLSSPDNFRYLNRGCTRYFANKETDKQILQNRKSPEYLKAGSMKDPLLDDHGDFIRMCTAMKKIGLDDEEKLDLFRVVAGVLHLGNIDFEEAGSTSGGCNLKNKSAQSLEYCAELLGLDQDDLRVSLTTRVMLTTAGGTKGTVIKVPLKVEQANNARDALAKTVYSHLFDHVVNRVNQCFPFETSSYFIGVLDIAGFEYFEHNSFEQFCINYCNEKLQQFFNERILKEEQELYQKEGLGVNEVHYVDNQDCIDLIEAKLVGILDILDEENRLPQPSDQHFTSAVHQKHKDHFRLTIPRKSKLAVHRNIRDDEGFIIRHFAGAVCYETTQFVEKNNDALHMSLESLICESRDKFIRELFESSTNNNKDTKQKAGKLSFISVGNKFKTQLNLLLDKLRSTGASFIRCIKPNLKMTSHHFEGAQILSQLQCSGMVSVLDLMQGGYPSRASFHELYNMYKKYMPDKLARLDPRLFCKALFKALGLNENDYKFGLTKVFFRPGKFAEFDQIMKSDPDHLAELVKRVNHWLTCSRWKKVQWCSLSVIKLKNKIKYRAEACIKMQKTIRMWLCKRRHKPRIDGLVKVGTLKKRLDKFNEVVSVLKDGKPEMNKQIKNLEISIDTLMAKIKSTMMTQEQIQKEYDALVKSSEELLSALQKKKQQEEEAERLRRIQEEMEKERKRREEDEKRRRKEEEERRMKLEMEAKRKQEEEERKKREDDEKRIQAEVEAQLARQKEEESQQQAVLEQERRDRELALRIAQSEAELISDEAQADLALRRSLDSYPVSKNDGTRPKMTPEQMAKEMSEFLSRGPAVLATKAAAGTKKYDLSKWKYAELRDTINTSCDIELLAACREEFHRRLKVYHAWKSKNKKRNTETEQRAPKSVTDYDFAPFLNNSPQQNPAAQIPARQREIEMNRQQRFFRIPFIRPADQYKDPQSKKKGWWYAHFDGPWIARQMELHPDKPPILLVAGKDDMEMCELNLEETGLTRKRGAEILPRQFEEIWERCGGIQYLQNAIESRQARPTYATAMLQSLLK
UniProt P09874: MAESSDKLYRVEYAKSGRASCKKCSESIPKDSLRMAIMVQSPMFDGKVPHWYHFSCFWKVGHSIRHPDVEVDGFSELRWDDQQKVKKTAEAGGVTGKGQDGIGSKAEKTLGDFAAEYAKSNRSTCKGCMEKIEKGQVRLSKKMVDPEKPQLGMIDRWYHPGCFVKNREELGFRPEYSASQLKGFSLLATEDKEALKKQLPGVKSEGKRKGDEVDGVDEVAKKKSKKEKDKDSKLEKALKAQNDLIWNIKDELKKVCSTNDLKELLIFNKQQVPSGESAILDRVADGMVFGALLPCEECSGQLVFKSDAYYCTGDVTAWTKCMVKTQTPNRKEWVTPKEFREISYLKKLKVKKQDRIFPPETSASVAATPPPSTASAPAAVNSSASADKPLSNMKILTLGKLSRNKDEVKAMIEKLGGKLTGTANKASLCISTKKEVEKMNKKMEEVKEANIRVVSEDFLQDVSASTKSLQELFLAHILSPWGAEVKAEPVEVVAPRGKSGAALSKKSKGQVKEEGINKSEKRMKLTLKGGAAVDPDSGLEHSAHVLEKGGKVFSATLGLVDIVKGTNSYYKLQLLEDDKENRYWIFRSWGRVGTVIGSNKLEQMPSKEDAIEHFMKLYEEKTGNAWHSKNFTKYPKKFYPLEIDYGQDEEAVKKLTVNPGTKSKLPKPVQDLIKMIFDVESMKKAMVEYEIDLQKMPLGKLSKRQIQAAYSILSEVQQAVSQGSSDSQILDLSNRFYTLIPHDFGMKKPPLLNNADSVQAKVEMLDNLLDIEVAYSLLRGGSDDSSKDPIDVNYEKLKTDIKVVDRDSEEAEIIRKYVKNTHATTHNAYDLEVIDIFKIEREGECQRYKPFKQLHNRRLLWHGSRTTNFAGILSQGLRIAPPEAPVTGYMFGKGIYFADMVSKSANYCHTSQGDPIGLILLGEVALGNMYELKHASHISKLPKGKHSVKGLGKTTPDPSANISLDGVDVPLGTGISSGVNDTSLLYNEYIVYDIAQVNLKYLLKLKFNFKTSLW
UniProt Q7Z4V5: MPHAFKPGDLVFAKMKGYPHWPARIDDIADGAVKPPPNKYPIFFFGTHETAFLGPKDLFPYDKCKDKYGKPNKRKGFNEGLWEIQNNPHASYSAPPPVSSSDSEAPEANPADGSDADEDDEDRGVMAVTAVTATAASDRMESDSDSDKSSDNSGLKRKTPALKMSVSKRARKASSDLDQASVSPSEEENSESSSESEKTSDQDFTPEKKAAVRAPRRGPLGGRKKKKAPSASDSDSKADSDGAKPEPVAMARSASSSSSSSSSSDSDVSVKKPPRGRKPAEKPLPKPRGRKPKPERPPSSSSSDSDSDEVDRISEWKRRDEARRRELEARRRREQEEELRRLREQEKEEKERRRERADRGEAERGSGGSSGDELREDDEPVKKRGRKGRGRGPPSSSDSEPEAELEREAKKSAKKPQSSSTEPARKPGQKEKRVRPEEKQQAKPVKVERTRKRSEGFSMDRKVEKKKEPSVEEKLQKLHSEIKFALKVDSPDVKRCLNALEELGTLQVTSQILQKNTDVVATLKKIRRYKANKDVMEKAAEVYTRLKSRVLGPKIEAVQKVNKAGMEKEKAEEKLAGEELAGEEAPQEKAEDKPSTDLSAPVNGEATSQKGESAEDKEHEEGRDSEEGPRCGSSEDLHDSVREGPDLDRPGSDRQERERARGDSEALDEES
UniProt Q8N726: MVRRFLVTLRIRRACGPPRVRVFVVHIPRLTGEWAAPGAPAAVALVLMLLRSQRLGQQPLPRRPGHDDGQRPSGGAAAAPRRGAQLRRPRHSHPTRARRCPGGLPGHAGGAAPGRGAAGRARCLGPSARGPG

Assays:
[1] = target: Prelamin-A/C, MAC-tagged (human) (UniProt P02545); assay: affinity purification with mass spectrometry + proximity labelling
[2] = target: Proteasome subunit alpha type-1, MAC-tagged (human) (UniProt P25786); assay: proximity labelling
[3] = target: cyclin-dependent kinase (CDK) 7, MAC-tagged (UniProt P50613); assay: affinity purification with mass spectrometry
[4] = target: cyclin-dependent kinase (CDK) 7, MAC-tagged (UniProt P50613); assay: proximity labelling
[5] = target: cyclin-dependent kinase (CDK) 8, MAC-tagged (UniProt P49336); assay: affinity purification with mass spectrometry + proximity labelling
[6] = target: mediator of RNA polymerase II transcription subunit 13, MAC-tagged (UniProt Q9UHV7); assay: as above

binding [1]: binds
Molecule: RAD50 (from UniProt Q92878 1-1312)

binding [2]: binds
Molecule: MYO6 (from UniProt Q9UM54 1-1294)

binding [1]: binds
Molecule: PARP1 (from UniProt P09874)

binding [3]: binds
binding [4]: binds
Molecule: TFIIH1 (from UniProt P32780 1-548)

binding [3]: binds
binding [4]: binds
Molecule: TFIIH basal transcription factor complex helicase XPB subunit (from UniProt P19447 1-782)

binding [1]: binds
Molecule: HDGR2 (from UniProt Q7Z4V5 1-671)

binding [1]: binds
Molecule: KI67 (from UniProt P46013 1-3256)

binding [2]: binds
Molecule: MYH10 (from UniProt P35580 1-1976)

binding [2]: binds
Molecule: MYO1B (from UniProt O43795 1-1136)

binding [1]: binds
Molecule: ARF (from UniProt Q8N726 1-132)

binding [2]: binds
Molecule: MYH14 (from UniProt Q7Z406 1-1995)

binding [2]: binds
B1: MYO1D (protein, UniProt O94832 1-1006)
chain: MAEQESLEFGKADFVLMDTVSMPEFMANLRLRFEKGRIYTFIGEVVVSVNPYKLLNIYGRDTIEQYKGRELYERPPHLFAIADAAYKAMKRRSKDTCIVISGESGAGKTEASKYIMQYIAAITNPSQRAEVERVKNMLLKSNCVLEAFGNAKTNRNDNSSRFGKYMDINFDFKGDPIGGHINNYLLEKSRVIVQQPGERSFHSFYQLLQGGSEQMLRSLHLQKSLSSYNYIHVGAQLKSSINDAAEFRVVADAMKVIGFKPEEIQTVYKILAAILHLGNLKFVVDGDTPLIENGKVVSIIAELLSTKTDMVEKALLYRTVATGRDIIDKQHTEQEASYGRDAFAKAIYERLFCWIVTRINDIIEVKNYDTTIHGKNTVIGVLDIYGFEIFDNNSFEQFCINYCNEKLQQLFIQLVLKQEQEEYQREGIPWKHIDYFNNQIIVDLVEQQHKGIIAILDDACMNVGKVTDEMFLEALNSKLGKHAHFSSRKLCASDKILEFDRDFRIRHYAGDVVYSVIGFIDKNKDTLFQDFKRLMYNSSNPVLKNMWPEGKLSITEVTKRPLTAATLFKNSMIALVDNLASKEPYYVRCIKPNDKKSPQIFDDERCRHQVEYLGLLENVRVRRAGFAFRQTYEKFLHRYKMISEFTWPNHDLPSDKEAVKKLIERCGFQDDVAYGKTKIFIRTPRTLFTLEELRAQMLIRIVLFLQKVWRGTLARMRYKRTKAALTIIRYYRRYKVKSYIHEVARRFHGVKTMRDYGKHVKWPSPPKVLRRFEEALQTIFNRWRASQLIKSIPASDLPQVRAKVAAVEMLKGQRADLGLQRAWEGNYLASKPDTPQTSGTFVPVANELKRKDKYMNVLFSCHVRKVNRFSKVEDRAIFVTDRHLYKMDPTKQYKVMKTIPLYNLTGLSVSNGKDQLVVFHTKDNKDLIVCLFSKQPTHESRIGELVGVLVNHFKSEKRHLQVNVTNPVQCSLHGKKCTVSVETRLNQPQPDFTKNRSGFILSVPGN

binding [5]: binds
binding [6]: binds
B2: MED17 (protein, UniProt Q9NVC6 1-651)
chain: MSGVRAVRISIESACEKQVHEVGLDGTETYLPPLSMSQNLARLAQRIDFSQGSGSEEEEAAGTEGDAQEWPGAGSSADQDDEEGVVKFQPSLWPWDSVRNNLRSALTEMCVLYDVLSIVRDKKFMTLDPVSQDALPPKQNPQTLQLISKKKSLAGAAQILLKGAERLTKSVTENQENKLQRDFNSELLRLRQHWKLRKVGDKILGDLSYRSAGSLFPHHGTFEVIKNTDLDLDKKIPEDYCPLDVQIPSDLEGSAYIKVSIQKQAPDIGDLGTVNLFKRPLPKSKPGSPHWQTKLEAAQNVLLCKEIFAQLSREAVQIKSQVPHIVVKNQIISQPFPSLQLSISLCHSSNDKKSQKFATEKQCPEDHLYVLEHNLHLLIREFHKQTLSSIMMPHPASAPFGHKRMRLSGPQAFDKNEINSLQSSEGLLEKIIKQAKHIFLRSRAAATIDSLASRIEDPQIQAHWSNINDVYESSVKVLITSQGYEQICKSIQLQLNIGVEQIRVVHRDGRVITLSYQEQELQDFLLSQMSQHQVHAVQQLAKVMGWQVLSFSNHVGLGPIESIGNASAITVASPSGDYAISVRNGPESGSKIMVQFPRNQCKDLPKSDVLQDNKWSHLRGPFKEVQWNKMEGRNFVYKMELLMSALSPCLL

binding [3]: binds
binding [4]: binds
B3: TFIIH2 (protein, UniProt Q13888 1-395)
chain: MDEEPERTKRWEGGYERTWEILKEDESGSLKATIEDILFKAKRKRVFEHHGQVRLGMMRHLYVVVDGSRTMEDQDLKPNRLTCTLKLLEYFVEEYFDQNPISQIGIIVTKSKRAEKLTELSGNPRKHITSLKKAVDMTCHGEPSLYNSLSIAMQTLKHMPGHTSREVLIIFSSLTTCDPSNIYDLIKTLKAAKIRVSVIGLSAEVRVCTVLARETGGTYHVILDESHYKELLTHHVSPPPASSSSECSLIRMGFPQHTIASLSDQDAKPSFSMAHLDGNTEPGLTLGGYFCPQCRAKYCELPVECKICGLTLVSAPHLARSYHHLFPLDAFQEIPLEEYNGERFCYGCQGELKDQHVYVCAVCQNVFCVDCDVFVHDSLHCCPGCIHKIPAPSGV

binding [3]: binds
binding [4]: binds
B4: TFIIH4 (protein, UniProt Q92759 1-462)
chain: MESTPSRGLNRVHLQCRNLQEFLGGLSPGVLDRLYGHPATCLAVFRELPSLAKNWVMRMLFLEQPLPQAAVALWVKKEFSKAQEESTGLLSGLRIWHTQLLPGGLQGLILNPIFRQNLRIALLGGGKAWSDDTSQLGPDKHARDVPSLDKYAEERWEVVLHFMVGSPSAAVSQDLAQLLSQAGLMKSTEPGEPPCITSAGFQFLLLDTPAQLWYFMLQYLQTAQSRGMDLVEILSFLFQLSFSTLGKDYSVEGMSDSLLNFLQHLREFGLVFQRKRKSRRYYPTRLAINLSSGVSGAGGTVHQPGFIVVETNYRLYAYTESELQIALIALFSEMLYRFPNMVVAQVTRESVQQAIASGITAQQIIHFLRTRAHPVMLKQTPVLPPTITDQIRLWELERDRLRFTEGVLYNQFLSQVDFELLLAHARELGVLVFENSAKRLMVVTPAGHSDVKRFWKRQKHSS

binding [3]: binds
binding [4]: binds
B5: TFIIH5 (protein, UniProt Q6ZYL4 1-71)
chain: MVNVLKGVLIECDPAMKQFLLYLDESNALGKKFIIQDIDDTHVFVIAELVNVLQERVGELMDQNAFSLTQK

binding [3]: binds
binding [4]: binds
B6: TFIIH3 (protein, UniProt Q13889 1-308)
chain: MVSDEDELNLLVIVVDANPIWWGKQALKESQFTLSKCIDAVMVLGNSHLFMNRSNKLAVIASHIQESRFLYPGKNGRLGDFFGDPGNPPEFNPSGSKDGKYELLTSANEVIVEEIKDLMTKSDIKGQHTETLLAGSLAKALCYIHRMNKEVKDNQEMKSRILVIKAAEDSALQYMNFMNVIFAAQKQNILIDACVLDSDSGLLQQACDITGGLYLKVPQMPSLLQYLLWVFLPDQDQRSQLILPPPVHVDYRAACFCHRNLIEIGYVCSVCLSIFCNFSPICTTCETAFKISLPPVLKAKKKKLKVSA

binding [5]: binds
binding [6]: binds
B7: MED23 (protein, UniProt Q9ULK4 1-1368)
chain: METQLQSIFEEVVKTEVIEEAFPGMFMDTPEDEKTKLISCLGAFRQFWGGLSQESHEQCIQWIVKFIHGQHSPKRISFLYDCLAMAVETGLLPPRLVCESLINSDTLEWERTQLWALTFKLVRKIIGGVDYKGVRDLLKVILEKILTIPNTVSSAVVQQLLAAREVIAYILERNACLLPAYFAVTEIRKLYPEGKLPHWLLGNLVSDFVDTFRPTARINSICGRCSLLPVVNNSGAICNSWKLDPATLRFPLKGLLPYDKDLFEPQTALLRYVLEQPYSRDMVCNMLGLNKQHKQRCPVLEDQLVDLVVYAMERSETEEKFDDGGTSQLLWQHLSSQLIFFVLFQFASFPHMVLSLHQKLAGRGLIKGRDHLMWVLLQFISGSIQKNALADFLPVMKLFDLLYPEKEYIPVPDINKPQSTHAFAMTCIWIHLNRKAQNDNSKLQIPIPHSLRLHHEFLQQSLRNKSLQMNDYKIALLCNAYSTNSECFTLPMGALVETIYGNGIMRIPLPGTNCMASGSITPLPMNLLDSLTVHAKMSLIHSIATRVIKLAHAKSSVALAPALVETYSRLLVYMEIESLGIKGFISQLLPTVFKSHAWGILHTLLEMFSYRMHHIQPHYRVQLLSHLHTLAAVAQTNQNQLHLCVESTALRLITALGSSEVQPQFTRFLSDPKTVLSAESEELNRALILTLARATHVTDFFTGSDSIQGTWCKDILQTIMSFTPHNWASHTLSCFPGPLQAFFKQNNVPQESRFNLKKNVEEEYRKWKSMSNENDIITHFSMQGSPPLFLCLLWKMLLETDHINQIGYRVLERIGARALVAHVRTFADFLVYEFSTSAGGQQLNKCIEILNDMVWKYNIVTLDRLILCLAMRSHEGNEAQVCYFIIQLLLLKPNDFRNRVSDFVKENSPEHWLQNDWHTKHMNYHKKYPEKLYFEGLAEQVDPPVQIQSPYLPIYFGNVCLRFLPVFDIVIHRFLELLPVSKSLETLLDHLGGLYKFHDRPVTYLYNTLHYYEMHLRDRAFLKRKLVHAIIGSLKDNRPQGWCLSDTYLKCAMNAREENPWVPDDTYYCRLIGRLVDTMAGKSPGPFPNCDWRFNEFPNPAAHALHVTCVELMALAVSGKEVGNALLNVVLKSQPLVPRENITAWMNAIGLIITALPEPYWIVLHDRIVSVISSPSLTSETEWVGYPFRLFDFTACHQSYSEMSCSYTLALAHAVWHHSSIGQLSLIPKFLTEVLLPIVKTEFQLLYVYHLVGPFLQRFQQERTRCMIEIGVAFYDMLLNVDQCSTHLNYMDPICDFLYHMKYMFTGDSVKEQVEKIICNLKPALKLRLRFITHISKMEPAAVPPQAMNSGSPAPQSNQVPVSLPVTQ
